# Experimental data from PubChem BioAssay AID1117319 (Southern Research Institute, 2015).
# Amino acid sequences for entries named in this document (tags omitted). A change or cut given only in a name is not applied to a line headed by its entry.
# UniProt P69720: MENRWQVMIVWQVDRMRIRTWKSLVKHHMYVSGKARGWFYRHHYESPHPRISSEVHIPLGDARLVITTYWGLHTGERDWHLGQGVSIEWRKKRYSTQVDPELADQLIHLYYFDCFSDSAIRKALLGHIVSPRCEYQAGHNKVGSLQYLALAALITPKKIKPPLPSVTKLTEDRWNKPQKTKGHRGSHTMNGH
# UniProt P69721: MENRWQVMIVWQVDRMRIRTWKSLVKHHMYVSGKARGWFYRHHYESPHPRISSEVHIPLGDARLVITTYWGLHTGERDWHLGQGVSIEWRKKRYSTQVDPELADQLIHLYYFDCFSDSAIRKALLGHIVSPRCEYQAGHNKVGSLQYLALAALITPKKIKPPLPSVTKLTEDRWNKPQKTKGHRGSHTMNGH
# UniProt P69722: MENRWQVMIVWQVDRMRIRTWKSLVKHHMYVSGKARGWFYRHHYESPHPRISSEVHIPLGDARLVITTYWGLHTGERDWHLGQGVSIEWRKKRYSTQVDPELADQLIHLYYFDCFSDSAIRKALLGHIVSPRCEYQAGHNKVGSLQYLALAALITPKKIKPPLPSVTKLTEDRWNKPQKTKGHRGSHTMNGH
# UniProt P69723: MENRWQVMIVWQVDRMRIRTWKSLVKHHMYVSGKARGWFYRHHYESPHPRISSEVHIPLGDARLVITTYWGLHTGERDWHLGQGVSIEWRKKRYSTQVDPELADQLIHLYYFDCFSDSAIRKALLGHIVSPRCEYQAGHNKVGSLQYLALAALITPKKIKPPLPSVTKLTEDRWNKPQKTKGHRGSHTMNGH
# UniProt Q9HC16: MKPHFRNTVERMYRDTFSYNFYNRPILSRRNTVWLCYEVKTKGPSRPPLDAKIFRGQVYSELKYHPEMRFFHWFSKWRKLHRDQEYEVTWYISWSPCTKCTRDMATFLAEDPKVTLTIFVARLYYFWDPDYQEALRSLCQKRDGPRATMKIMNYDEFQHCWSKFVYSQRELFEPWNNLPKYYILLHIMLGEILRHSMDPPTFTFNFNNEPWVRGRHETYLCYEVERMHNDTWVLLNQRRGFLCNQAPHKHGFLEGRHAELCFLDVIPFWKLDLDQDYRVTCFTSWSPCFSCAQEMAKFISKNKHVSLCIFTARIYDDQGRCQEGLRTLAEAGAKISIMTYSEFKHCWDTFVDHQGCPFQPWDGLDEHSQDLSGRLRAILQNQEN
# “And” between values parts separate entries of the source, which are not always exact repeats. Equal entries are not always repeated. Among all 260,000 compounds or so, about 1,500 (0.58%) were called active. Inconclusive results, whose numbers are uncertain, are shown with a selection of clear calls.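 How the source made its calls: active means inhibition above a set limit at one or more doses, reproduced on every date tested; inconclusive means results disagree between test dates, or hit never tested in dose response; inactive means the rest.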
# Molecular target: Virion infectivity factor (Human immunodeficiency virus type 1 group M subtype B (isolate BH10)) + Virion infectivity factor (Human immunodeficiency virus type 1 group M subtype B (isolate BRU/LAI)) + Virion infectivity factor (Human immunodeficiency virus type 1 group M subtype B (isolate PCV12)) + Virion infectivity factor (Human immunodeficiency virus type 1 group M subtype B (isolate HXB2)) + DNA dC->dU-editing enzyme APOBEC-3G (Homo sapiens) (UniProt P69720+P69721+P69722+P69723+Q9HC16)
# Assay: inhibitors of Vif binding to APOBEC3G peptide, primary screen, biochemical, TR-FRET, GST-Vif 1-94, biotin-A3G peptide, dose response retest (AID 1117319);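 further: Vif residues 1-94 fused to GST binding biotinylated APOBEC3G peptide 110-148; 0% = full assay without inhibitor and 100% = GST in place of GST-Vif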
# Details: stronger effect = higher value
row,Compound,inhibition
1,CCCOc1ccc(Cc2c(Cl)nc(SC)nc2OC)cc1,inconclusive: 41%
2,Cc1cccc(N2CCN(CCNC(=O)c3cc4c(s3)CS(=O)(=O)C4)CC2)c1C,inconclusive: 61.9%
3,CC(C)C(=O)Nc1cccc(C(=O)N2CCCCC2C)c1 (stereo unspecified),inactive: 12.2%
4,Nc1nc(N)c(N=Nc2ccc(SCC(=O)O)cc2)c(=O)[nH]1,inconclusive: 43.8%
5,Cc1cc2cc(C(=O)N3CCc4c([nH]c5ccccc45)C3c3ccccn3)ccc2o1 (stereo unspecified),inactive: 10.8%
6,CN(CC(=O)Nc1cccc(F)c1)C(=O)c1cc(-c2ccccc2)nc2ccccc12,inactive: -4.43%
7,O=C(NCCCl)NNC(=O)c1cc2ccccc2cc1O,inconclusive: 60.3%
8,CCCCCn1c2nc3ccccc3nc2c2c(=O)n(CC(C)C)cnc21,inconclusive: 35.6%
9,CC(C)(C)NC(=S)NNC(=O)c1cccc(Br)c1,inconclusive: 46.5%
10,Cc1ccc(N2CCN(C(=O)c3ccccc3NC(=O)/C=C\C(=O)O)CC2)cc1,inconclusive: 34.5%
11,COc1ccc(CCNS(=O)(=O)CCNC(=O)c2ccccc2)cc1,inactive: -6.03%
12,CCS(=O)(=O)N1CCN(S(=O)(=O)c2ccc(F)cc2)CC1,inconclusive: 55.6%
13,Cc1[nH]n(-c2ccccc2)c(=O)c1N=Nc1nccs1,inconclusive: 33.2%
14,NC(=O)c1cccc2c1C(=O)N(C1CCCCC1)C2,inconclusive: 38.6%
15,O=[N+]([O-])c1cc2c(c(CSc3ncccn3)c1)OCOC2,inactive: 1.34%
16,O=C(NCc1ccccc1)c1ccc2c(c1)C(=O)N(Cc1ccncc1)C2=O,inconclusive: 38.1%
17,O=C(CSCc1ccccc1)NCc1ccc2c(c1)OCO2,inconclusive: 46.2%
18,CC1=NN(Cc2ccccc2)C(=O)C1,inconclusive: 43.2%
19,COc1cc2c(cc1OC)C(c1ccc(N(C)C)cc1)CC(=O)N2 (stereo unspecified),inconclusive: 52%
20,CC(=O)c1ccc(OC(=O)N(c2ccccc2)c2ccccc2)cc1,inconclusive: 42.8%
21,O=C(c1cc(-c2ccc(Cl)cc2)n(-c2cc(Cl)ccc2Cl)n1)N1CCOCC1,inconclusive: 17.9%
22,O=C(NCc1ccco1)c1cccc2ccccc12,inconclusive: 60.9%
23,Cc1nc2sccn2c(=O)c1CCN1CCC(=C(c2ccc(F)cc2)c2ccc(F)cc2)CC1,inconclusive: 40.6%

row,Compound,inhibition
1,CC1CCCCN1S(=O)(=O)c1ccc(C(=O)Nc2ccccc2-c2nc3ccccc3[nH]2)cc1 (stereo unspecified),inconclusive: 38.3%
2,CC(/C=C/c1ccco1)=N/NC(=O)c1ccc(C)nc1,inactive: 1.76%
3,Cc1nc2cc(-c3cccs3)[nH]n2c(=O)c1C,inconclusive: 41.4%
4,COc1cccc(/C=C/C(=O)c2cccc([N+](=O)[O-])c2)c1,inconclusive: 46.6%
5,COc1ccc(-n2nc3c(c2NC(=O)c2ccc(N4C(=O)CCC4=O)cc2)CSC3)cc1,inconclusive: 47.1%
6,Cn1c(=O)c2ncn(CC(=O)NCCC3=CCCCC3)c2n(C)c1=O,inconclusive: 58%
7,Cc1cc([N+](=O)[O-])nn1Cc1noc(C(=O)NCCCn2ccnc2)n1,inconclusive: 42.1%
8,O=C(COc1cc(O)c2c(=O)cc(-c3ccccc3)oc2c1)c1ccc(F)cc1,inconclusive: 44.3%
9,COc1ccc(/C=N/N=C/c2c[nH]c(=O)c(C#N)c2Nc2ccccc2)cc1,inconclusive: 41.7%
10,COc1ccc2[nH]c(=O)c(CN(CCO)C(=O)NCc3ccccc3)cc2c1,inconclusive: 45.8%
11,COc1cccc(NC(=O)CN(C)C(=O)c2cc(-c3ccco3)nc3ccccc23)c1,inactive: 23.7%
12,Cc1c(N/C=C/C(=O)c2cccs2)c(=O)n(-c2ccccc2)n1C,inconclusive: 37.5%
13,Cc1cc(S(=O)(=O)n2cnc3ccccc32)c(C)cc1Cl,inconclusive: 35.2%
14,COc1ccc(CNc2nc3c(c(=O)n(Cc4ccc(F)cc4)c(=O)n3C)n2C)cc1,inconclusive: 53.1%
15,COc1cc(-c2nc(CN3CCCCC3CCNC(C)=O)c(C)o2)ccc1F (stereo unspecified),inconclusive: 60%
16,O=C(NCc1ccccn1)C(=O)NCc1ccccn1,inactive: 5.11%
17,CN(Cc1ccccc1)C(=O)CNC(=O)Cn1cnc2ccccc2c1=O,inconclusive: 34%
18,CCc1nc(SCC(=O)c2ccc(C)c(C)c2)n[nH]1,inconclusive: 36.5%
19,CCc1cc2c(NC(Cc3c[nH]c4ccccc34)C(=O)O)nc(C)nc2s1 (stereo unspecified),inconclusive: 46.8%
20,CCn1cc(C(=O)NCc2ccc3c(c2)OCO3)c(=O)c2cc(S(=O)(=O)N3CCOCC3)ccc21,inactive: -9.22% and inactive: 8.82%
21,O=C1NC(=S)S/C1=C\c1coc2ccc(O)cc2c1=O,inconclusive: 59.5%
22,O=c1[nH]c2cc3c(cc2cc1CN(Cc1cccnc1)Cc1nnnn1Cc1ccco1)OCCO3,inconclusive: 62.9%
23,O=C(COC(=O)C1CCCN1C(=O)c1cccs1)c1ccccc1 (stereo unspecified),inconclusive: 31.6%

row,Compound,inhibition
1,COc1cccc(CNC(=O)c2cc(C)nc3ccccc23)c1,inconclusive: 34.5%
2,O=C1c2cccc([N+](=O)[O-])c2C(=O)N1c1c[nH]c(=O)[nH]c1=O,inconclusive: 53.2%
3,Cc1ccc(-c2nn(-c3ccccc3)cc2C(=O)O)o1,inconclusive: 43.3%
4,COC(=O)c1cc(NC(=O)C2CC(=O)NC(=NCc3ccc(OC)cc3)S2)cc(C(=O)OC)c1 (stereo unspecified),inconclusive: 43.7%
5,COC(=O)c1[nH]c2ccccc2c1NC(=O)CN1CCN(Cc2ccc3c(c2)OCO3)CC1,inactive: -1.82%
6,COc1cccc(NC(=O)Cc2nnc(SCC(=O)c3ccccc3)n2C)c1,inconclusive: 40.6%
7,COc1ccccc1N1CCN(C(=O)Cn2nc3n(C)c4ccccc4n3c(=O)c2=O)CC1,inconclusive: 44.8%
8,O=C(O)CCC(=O)c1ccc(-c2ccccc2)cc1,inconclusive: 41.3%
9,CC/C(=C\C(=O)c1ccncc1)Nc1ccc(O)cc1,inconclusive: 67.8%
10,Cc1ccc(Cl)cc1N1CCN(S(=O)(=O)c2cnc[nH]2)CC1,inconclusive: 33.4%
11,C=CCc1cc(C=O)cc(OCC)c1OCc1ccc(Cl)cc1,inconclusive: 45.5%
12,Cc1ccc(-c2ccc(C(=O)NCc3ccc(Cl)cc3)o2)c2ccccc12,inconclusive: 33.4%
13,Cc1ccccc1-n1c(C)nnc1SCC(=O)N1CCc2ccccc2C1,inconclusive: 38.9%
14,COC(=O)c1ccc(-n2nnnc2SC)cc1,inactive: 6.93%
15,CCOC(=O)Cc1csc(NS(=O)(=O)c2ccc3ccccc3c2)n1,inconclusive: 34.1%
16,CC(C)=CCN1CCN(Cc2ccc(C#CC(C)(C)O)s2)CC1CCO (stereo unspecified),inconclusive: 39.6%
17,O=C(Nc1ccc2oc(-c3cccnc3)nc2c1)c1cc2ccccc2o1,inactive: 20.3%
18,CC(=O)c1cccc(NC(=S)NCCc2ccc(Cl)cc2)c1,inconclusive: 49.7%
19,Nc1n[nH]c2ccccc12,inconclusive: 36.7%
20,CCc1ccc(NC(=O)N(CCOC)C2CCN(C(C)=O)CC2)cc1,inconclusive: 35%
21,C/C(N)=C(/C#N)C(=O)CSc1n[nH]c(-c2ccccc2Br)n1,inactive: 10.4% and inactive: -7.5%
22,N#Cc1cc(C(=O)c2cc(Cl)ccc2O)cn(-c2ccccc2)c1=O,inconclusive: 33.1%
23,COc1cc(/C=N/N2C(=O)CSC2=S)cc(Br)c1O,inconclusive: 41.2%

row,Compound,inhibition
1,CS(=O)(=O)N(CC(=O)NCCSCc1cccc(Cl)c1)c1ccc2c(c1)OCO2,inconclusive: 39.4%
2,COc1cc(C)ccc1OCCCON1C(=O)CCC1=O,inconclusive: 37.3%
3,CCN(CC)c1cc(Cl)c2nonc2c1N,inactive: 0.28%
4,Cc1ccc(C(=O)CC2(O)C(=O)N(Cc3ccc4c(c3)OCO4)c3ccccc32)cc1 (stereo unspecified),inconclusive: 35.7%
5,Cc1nc(CNC(=O)c2ccccc2OC2CCN(S(C)(=O)=O)CC2)cs1,inconclusive: 47.4%
6,Cc1ccc(OCC(=O)N(Cc2ccc(N(C)C)cc2)C2CCS(=O)(=O)C2)cc1 (stereo unspecified),inconclusive: 36.8%
7,Cc1cc2cc(CNC(=O)C3CC3)ccc2n1C,inconclusive: 61.5%
8,CCNC(=S)N1CCC(C(O)(c2ccccc2)c2ccccc2)CC1,inconclusive: 52.4%
9,COc1ccc(CCn2c(NN)nc3c2c(=O)[nH]c(=O)n3C)cc1,inconclusive: 35.8%
10,Cc1ccsc1/C=N/n1cnnc1,inactive: -12.8%
11,Cc1ccc(-c2ccc(=O)n(CC(=O)NCCN3CCCCC3C)n2)cc1 (stereo unspecified),inconclusive: -4.6%
12,Cc1cc(OCC(=O)N2CCCC2)cc(C)c1Cl,inconclusive: 33.6%
13,CCOC(=O)C1=C(C)OC(N)=C(C#N)C1c1cc(C)sc1C (stereo unspecified),inconclusive: 35.8%
14,COc1ccc(C2CC(=O)N3CN(Cc4ccco4)CSC3=C2C#N)cc1 (stereo unspecified),inconclusive: 19.5%
15,C=CCNc1nc(-c2sc(NC(=O)CC)nc2C)cs1,inconclusive: 41.1%
16,O=C(O)c1cnccn1,inconclusive: 40.6%
17,NS(=O)(=O)c1ccc(NC(=O)c2ccc(S(=O)(=O)N3CCOCC3)o2)cc1,inconclusive: 60.9%
18,CCOC(=O)NC1(NCC(C)C)Oc2ccccc2O1,inconclusive: 48.3%
19,Oc1ccc(-c2csc(Nc3cccc4ccccc34)n2)cc1O,inconclusive: 63.9%
20,CC1CCN(CCNC(=O)CN(C)S(=O)(=O)c2cccc3nsnc23)CC1,inconclusive: 16.4%
21,CCOC(=O)C1CCCN(CCC(C)c2ccccc2)C1 (stereo unspecified),inconclusive: 18.1%
22,O=C(c1ccc(Cl)cc1Cl)N1CCSCC1,inconclusive: 33.5%

# Quoted at random: 5 compounds from above.
row,Compound,inhibition
22,O=C(c1ccc(Cl)cc1Cl)N1CCSCC1,inconclusive: 33.5%
9,COc1ccc(CCn2c(NN)nc3c2c(=O)[nH]c(=O)n3C)cc1,inconclusive: 35.8%
12,Cc1cc(OCC(=O)N2CCCC2)cc(C)c1Cl,inconclusive: 33.6%
6,Cc1ccc(OCC(=O)N(Cc2ccc(N(C)C)cc2)C2CCS(=O)(=O)C2)cc1 (stereo unspecified),inconclusive: 36.8%
7,Cc1cc2cc(CNC(=O)C3CC3)ccc2n1C,inconclusive: 61.5%

# Reformatted bar-delimited: 2 of the compounds above.
row | Compound | inhibition
13 | CCOC(=O)C1=C(C)OC(N)=C(C#N)C1c1cc(C)sc1C (stereo unspecified) | inconclusive: 35.8%
14 | COc1ccc(C2CC(=O)N3CN(Cc4ccco4)CSC3=C2C#N)cc1 (stereo unspecified) | inconclusive: 19.5%
